In PMC10531093, “First-Generation Synthetic Cathinones Produce Arrhythmia in Zebrafish Eleutheroembryos: A New Approach Methodology for New Psychoactive Substances Cardiotoxicity Evaluation” (International Journal of Molecular Sciences, 2023):

Tested on: zebrafish embryos
Assay: Twenty-four-hour acute toxicity test (lethality and abnormalities, 4 to 5 dpf)
Type: in vivo, Danio rerio
Settings: for Hill Slope: lethality concentration-response curve, 24 h exposure; for Hill slope factor, times higher than for the other illicit drugs: 24 h lethality curves
Method: Experiments were conducted to assess lethality after 24 h exposure and quantify drug-induced effects on heart rate after 2 h exposure. Experiments were performed on day 4 of zebrafish development (4 dpf). On the day of the experiment, eleutheroembryos (hereafter embryos) were distributed into a 6-well plate (Thermo-Fisher Scientific, Madrid, Spain) by adding 12 embryos into each well with 5 mL of test solution. Embryos were exposed by immersion at 20 min intervals so that they could be mounted individually by ensuring equal exposure times in all groups. Each drug was tested at different concentrations (ranging from 1 to 1000 µM) in parallel with a control group (Goods buffer TAPS alone). The concentration range used was based on previous experiments with MDMA [58].
Embryos at 4 dpf were distributed to 6-well plates, and 10 embryos were placed into each well with 5 mL of drug test solution. Plates were incubated at 26 ± 1 °C under a 14:10 light:dark cycle for 24 h. Following 24 h exposure, endpoints used for assessing lethality (coagulation or lack of heartbeat) and morphological/functional abnormalities were recorded for each treatment group. Each drug was tested at different concentrations, and at least three independent experiments were performed.
Concentration–response curves were derived from 2 h exposures and the 24 h acute toxicity test as effective concentrations 50 (EC50) and lethal concentrations 50 (LC50), respectively. Concentration–response curves were obtained with a sigmoidal concentration–response equation (Hill equation) using the package drc in R software (v.R-3.6.1).

SMILES	Hill Slope	Hill slope factor, times higher than for the other illicit drugs
CNC(C)Cc1ccc2c(c1)OCO2 (stereo not shown) [MDMA, 3,4-methylenedioxy-methamphetamine]	2.65	–
CCCC(C(=O)c1ccc2c(c1)OCO2)N1CCCC1 (stereo not shown) [MDPV, 3,4-methylenedioxy-pyrovalerone]	6.88	approximately 3 times
COC(=O)[C@H]1[C@@H](OC(=O)c2ccccc2)C[C@@H]2CC[C@H]1N2C [Cocaine, cocaine]	2.81	–
CNC(C)C(=O)c1ccc2c(c1)OCO2 (stereo not shown) [Methylone, methylone]	15.3	~7.5 times
CNC(C)C(=O)c1ccc(C)cc1 (stereo not shown) [Mephedrone, mephedrone]	1.86	–
